Laboratory results taken from publication PMC5847545.
No constants are given. Whether binding was seen depends on the method and setting. In cells and extracts the contact can be indirect. A yes stands for co-enrichment or nearness to the bait. Other partners may have been found. Where a sequence is shown, tags or fusion partners need not be part of it.

The chains behind the UniProt entries cited, without tags or fusion partners.
UniProt P45481: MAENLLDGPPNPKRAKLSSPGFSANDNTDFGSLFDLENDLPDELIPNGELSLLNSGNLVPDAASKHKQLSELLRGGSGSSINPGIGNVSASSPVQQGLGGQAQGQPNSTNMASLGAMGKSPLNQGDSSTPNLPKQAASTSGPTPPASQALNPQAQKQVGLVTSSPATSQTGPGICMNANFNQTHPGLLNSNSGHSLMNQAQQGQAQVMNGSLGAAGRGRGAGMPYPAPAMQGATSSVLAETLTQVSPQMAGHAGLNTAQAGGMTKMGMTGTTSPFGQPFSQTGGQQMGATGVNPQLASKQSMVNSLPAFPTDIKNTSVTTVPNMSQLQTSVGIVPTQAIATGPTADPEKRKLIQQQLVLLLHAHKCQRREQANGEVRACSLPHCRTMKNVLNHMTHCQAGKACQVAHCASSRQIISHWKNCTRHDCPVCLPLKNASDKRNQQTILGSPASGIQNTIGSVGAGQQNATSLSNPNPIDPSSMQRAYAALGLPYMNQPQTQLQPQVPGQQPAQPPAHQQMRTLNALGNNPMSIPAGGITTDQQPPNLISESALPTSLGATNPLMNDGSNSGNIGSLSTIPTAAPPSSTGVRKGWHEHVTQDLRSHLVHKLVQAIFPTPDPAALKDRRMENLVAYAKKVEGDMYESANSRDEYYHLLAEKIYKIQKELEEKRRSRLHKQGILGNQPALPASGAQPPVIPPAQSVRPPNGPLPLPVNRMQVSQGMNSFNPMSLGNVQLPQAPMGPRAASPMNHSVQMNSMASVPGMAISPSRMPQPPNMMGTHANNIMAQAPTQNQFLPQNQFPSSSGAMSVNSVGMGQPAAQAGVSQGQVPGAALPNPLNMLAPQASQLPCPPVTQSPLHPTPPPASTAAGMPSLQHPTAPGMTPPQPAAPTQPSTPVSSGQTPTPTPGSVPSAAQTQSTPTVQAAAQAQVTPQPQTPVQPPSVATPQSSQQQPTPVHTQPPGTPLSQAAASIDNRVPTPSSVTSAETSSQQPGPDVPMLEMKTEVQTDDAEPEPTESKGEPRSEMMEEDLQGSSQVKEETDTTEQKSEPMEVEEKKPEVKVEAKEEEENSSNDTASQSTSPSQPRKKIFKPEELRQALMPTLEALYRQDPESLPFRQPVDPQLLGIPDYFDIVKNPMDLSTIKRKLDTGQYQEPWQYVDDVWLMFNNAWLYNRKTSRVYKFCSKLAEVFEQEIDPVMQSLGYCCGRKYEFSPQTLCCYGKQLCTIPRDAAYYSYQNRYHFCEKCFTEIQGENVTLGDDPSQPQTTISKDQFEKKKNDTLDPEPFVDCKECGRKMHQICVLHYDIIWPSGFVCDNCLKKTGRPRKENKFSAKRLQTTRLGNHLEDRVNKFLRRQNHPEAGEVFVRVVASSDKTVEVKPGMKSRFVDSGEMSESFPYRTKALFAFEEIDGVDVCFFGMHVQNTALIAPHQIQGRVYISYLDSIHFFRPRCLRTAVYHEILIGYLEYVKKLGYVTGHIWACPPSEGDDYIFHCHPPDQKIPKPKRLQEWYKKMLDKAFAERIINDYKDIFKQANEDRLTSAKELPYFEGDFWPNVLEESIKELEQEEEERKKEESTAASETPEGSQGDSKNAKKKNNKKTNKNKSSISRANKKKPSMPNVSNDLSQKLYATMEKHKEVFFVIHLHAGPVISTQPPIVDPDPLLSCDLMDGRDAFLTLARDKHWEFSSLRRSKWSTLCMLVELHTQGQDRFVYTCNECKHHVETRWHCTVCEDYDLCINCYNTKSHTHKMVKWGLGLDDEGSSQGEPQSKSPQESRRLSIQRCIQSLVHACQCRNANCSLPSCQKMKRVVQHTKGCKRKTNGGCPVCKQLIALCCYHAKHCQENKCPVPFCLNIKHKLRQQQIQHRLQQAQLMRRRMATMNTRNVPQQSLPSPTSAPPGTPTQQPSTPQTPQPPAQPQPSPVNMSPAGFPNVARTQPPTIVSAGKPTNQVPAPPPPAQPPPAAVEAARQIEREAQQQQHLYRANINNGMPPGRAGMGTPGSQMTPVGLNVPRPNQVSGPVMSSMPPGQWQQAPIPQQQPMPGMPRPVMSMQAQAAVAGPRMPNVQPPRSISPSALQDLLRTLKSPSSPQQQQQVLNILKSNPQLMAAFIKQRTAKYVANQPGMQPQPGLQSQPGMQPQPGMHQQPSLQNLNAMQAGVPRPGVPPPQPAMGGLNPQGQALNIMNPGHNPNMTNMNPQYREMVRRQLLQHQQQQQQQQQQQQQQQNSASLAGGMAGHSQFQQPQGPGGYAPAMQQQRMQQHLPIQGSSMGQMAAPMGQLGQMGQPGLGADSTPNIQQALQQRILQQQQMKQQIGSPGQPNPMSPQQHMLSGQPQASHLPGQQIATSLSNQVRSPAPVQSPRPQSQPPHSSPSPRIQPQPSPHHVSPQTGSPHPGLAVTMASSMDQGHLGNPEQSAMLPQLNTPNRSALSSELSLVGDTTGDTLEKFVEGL

Target: FLAG-CBP-HA, wild type (UniProt P45481)
Experiment: affinity purification with mass spectrometry; HEK293T cells overexpressing Flag-CBP and COASY cDNA; CBP immunoprecipitated, COASY peptides found by mass spectrometry (Supplementary Fig. 5c-f)

binding: binds
B1: COASY, overexpressed from cDNA with Flag-CBP (protein, UniProt Q13057 1-564)
chain: MAVFRSGLLVLTTPLASLAPRLASILTSAARLVNHTLYVHLQPGMSLEGPAQPQSSPVQATFEVLDFITHLYAGADVHRHLDVRILLTNIRTKSTFLPPLPTSVQNLAHPPEVVLTDFQTLDGSQYNPVKQQLVRYATSCYSCCPRLASVLLYSDYGIGEVPVEPLDVPLPSTIRPASPVAGSPKQPVRGYYRGAVGGTFDRLHNAHKVLLSVACILAQEQLVVGVADKDLLKSKLLPELLQPYTERVEHLSEFLVDIKPSLTFDVIPLLDPYGPAGSDPSLEFLVVSEETYRGGMAINRFRLENDLEELALYQIQLLKDLRHTENEEDKVSSSSFRQRMLGNLLRPPYERPELPTCLYVIGLTGISGSGKSSIAQRLKGLGAFVIDSDHLGHRAYAPGGPAYQPVVEAFGTDILHKDGIINRKVLGSRVFGNKKQLKILTDIMWPIIAKLAREEMDRAVAEGKRVCVIDAAVLLEAGWQNLVHEVWTAVIPETEAVRRIVERDGLSEAAAQSRLQSQMSGQQLVEQSHVVLSTLWEPHITQRQVEKAWALLQKRIPKTHQALD
